These results are taken from publication PMC12052123, “Investigating the quaternary structure of a homomultimeric catechol 1,2-dioxygenase: An integrative structural biology study” (PLOS One, 2025).

Results are given in words; binding and its absence hold for the method and conditions named. Some results given as binding are weak or reduced against the parent protein; the word gives no strength.

The target of assay [1] is catechol 1,2-dioxygenase from Stutzerimonas frequens GOM2 (Stutzerimonas frequens GOM2 (Pseudomonas stutzeri GOM2)). The assay can be described thus: SAXS (static mode); Buffer B, analysis of the mixture with OLIGOMERS (ATSAS); lyophilized and reconstituted SfC12DO; both purified.
The target is the same in assay [2]. The assay can be described thus: SDS-PAGE; denaturing Tris-Gly-SDS, 12% gel, Coomassie; lyophilized SfC12DO; both purified.

B1: catechol 1,2-dioxygenase from Stutzerimonas frequens GOM2 (enzyme, UniProt A0ABX6XR78 1-312, looked up)
chain: MTVKISHTNDVQQFFKEASGFNNDAGSSRLKTVINRVLADTARIIEDLEITQDEFWKAVDYINRLGGRHEAGLLVAGLGLEHYLDLLQDAKDEQEGLVGGTPRTIEGPLYVAGAPIAEGEVRMDDDSEEGVATTMFLQGRVTGPDGKPLAGATVDLWHANTKGNYSYFDKSQSEYNLRRRIVTDENGYYRARSIVPSGYGCSPDGPTQEVLDMLGRHGQRPAHIHFFISAPGHRHLTTQINLAGDKYLWDDFAYATRDGLVGDIRFIDDAEAARARGVQGRFAEVDFDFQLQKAPAPQAEQRSKRPRALQQA
notes: catechol 1,2-dioxygenase encoded by the CatA gene of Stutzerimonas frequens GOM2 (Pseudomonas stutzeri GOM2); regions are labelled up to residue 312; Non-heme Fe3+ enzyme; Number of copies depends on the sample: dimer when non-lyophilized; dimer, tetramer, (hexamer), octamer and >20-mer after lyophilization and reconstitution; also called SfC12DO; PsC12DO; source: used non-lyophilized, or …
In the case of B1, the binding entry in assay [1] and in assay [2] was “binds” each time.
